“Also recorded” adds a separate entry of the source.
What was measured:
[1] = general procedure: Boc solid-phase peptide synthesis; Boc-Agm-SPA-MBHA resin (0.3 mmol/g) or Agm-sulfonyl-polystyrene (PS) resin (0.74 mmol/g); DIC; preformed HOBt esters for Boc-Asn-OH and Boc-Gln-OH; conditions: whole synthesis
U-87 MG cells = assay: Immunocytochemistry / differentiation in reduced serum-containing medium; assay type: cell-based, human; conditions: JI-34 1 μM, 0.1% FBS-containing medium, 2 d; vs. DMSO control
Method: Cells were seeded onto coverslips in six-well plates (50,000 cells per well) in 10% FBS-containing growth medium. This medium was replaced with serum-free medium the following day for 24 h. Thereafter, GHRH agonist (JI-34, 1 μM) was added in medium supplemented with 0.1% FBS and remained for the consecutive 2 d. Control cells received vehicle (DMSO). At the end of the treatment, phase-contrast images of live cells were collected and cells were fixed in ice-cold acetone for 10 min, washed with PBS three times, and blocked with 2% goat serum in PBS for 30 min. GFAP (Abcam; 1:500 dilution) or nestin (BD Transduction Laboratories; 1:75 dilution) antibodies were added in PBS for 1 h. Anti-rabbit and anti-mouse secondary antibodies (Alexa Fluor 488; Jackson Immunoresearch) were also applied for 1 h. Coverslips were mounted in Vectashield mounting medium containing DAPI for nuclear staining (Vector Laboratories). Images were acquired on a Nikon Eclipse Ti fluorescence microscope (Nikon Instruments).

[N-Me-Tyr^1, Fpa5^6, Gln^8, Orn^12, Abu^15, Orn^21, Nle^27, Asp^28, Agm^29] hGHRH(1-29)NH2
final HPLC purity ([1]; 220 and 280 nm, scale of the general procedure 0.50 mmol): >95%
crude mass ([1]; scale 0.50 mmol): 68 mg
isolated mass ([1]; scale 0.50 mmol): 18 mg

[Dat^1, Orn^12, Abu^15, Orn^21, Nle^27, Asp^28, Agm^29]hGHRH(1-29)NH2 [JI-34]
morphological changes (phase-contrast) (U-87 MG cells): higher tendency toward outgrowth of projections; also recorded: more/longer astrocytic processes than cells in the control group

Reference: patent publication US20150174207A1 (UNIVERSITY OF MIAMI, priority 2013, published 2015)
